Assay results taken from the supplement of paper PMC10849652.
The other results are listed elsewhere or left out.

By UniProt entry, the sequences of proteins in these tests, tags left out. Where a name states a change or a piece, a line headed by the entry shows the natural chain unless it says otherwise.
UniProt Q9UK73, whole entry, looked up: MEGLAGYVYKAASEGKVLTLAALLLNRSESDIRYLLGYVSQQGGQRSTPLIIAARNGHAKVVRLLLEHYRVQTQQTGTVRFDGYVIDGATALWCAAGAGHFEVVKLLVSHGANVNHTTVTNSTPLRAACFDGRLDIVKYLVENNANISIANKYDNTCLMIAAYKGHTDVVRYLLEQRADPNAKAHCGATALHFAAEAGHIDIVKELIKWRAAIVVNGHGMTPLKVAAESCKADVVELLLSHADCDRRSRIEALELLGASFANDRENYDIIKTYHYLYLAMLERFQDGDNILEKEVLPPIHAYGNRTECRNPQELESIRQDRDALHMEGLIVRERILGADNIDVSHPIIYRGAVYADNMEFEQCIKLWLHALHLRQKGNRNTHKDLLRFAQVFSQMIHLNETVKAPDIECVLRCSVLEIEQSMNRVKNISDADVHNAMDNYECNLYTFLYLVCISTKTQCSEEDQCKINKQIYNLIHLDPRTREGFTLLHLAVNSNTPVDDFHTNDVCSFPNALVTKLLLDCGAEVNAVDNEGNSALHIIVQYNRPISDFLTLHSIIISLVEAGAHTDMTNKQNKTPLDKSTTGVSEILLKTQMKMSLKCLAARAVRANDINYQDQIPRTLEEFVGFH
UniProt Q9Y680: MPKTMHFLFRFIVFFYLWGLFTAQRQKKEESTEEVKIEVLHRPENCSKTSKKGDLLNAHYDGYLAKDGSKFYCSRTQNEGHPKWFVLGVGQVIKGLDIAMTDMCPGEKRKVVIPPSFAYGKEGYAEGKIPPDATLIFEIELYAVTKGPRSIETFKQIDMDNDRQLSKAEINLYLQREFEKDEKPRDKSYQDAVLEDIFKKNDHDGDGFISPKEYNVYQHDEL
UniProt Q5HYJ3: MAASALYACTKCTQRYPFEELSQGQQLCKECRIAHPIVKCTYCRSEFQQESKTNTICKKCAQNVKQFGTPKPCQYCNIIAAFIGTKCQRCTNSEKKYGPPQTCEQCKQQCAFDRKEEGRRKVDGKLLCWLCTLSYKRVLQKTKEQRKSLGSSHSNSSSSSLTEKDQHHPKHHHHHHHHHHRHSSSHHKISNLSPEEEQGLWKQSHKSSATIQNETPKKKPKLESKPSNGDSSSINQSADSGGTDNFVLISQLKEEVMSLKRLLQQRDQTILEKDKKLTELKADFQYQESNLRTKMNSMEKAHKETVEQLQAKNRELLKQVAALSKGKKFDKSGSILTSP
UniProt Q8NEZ5: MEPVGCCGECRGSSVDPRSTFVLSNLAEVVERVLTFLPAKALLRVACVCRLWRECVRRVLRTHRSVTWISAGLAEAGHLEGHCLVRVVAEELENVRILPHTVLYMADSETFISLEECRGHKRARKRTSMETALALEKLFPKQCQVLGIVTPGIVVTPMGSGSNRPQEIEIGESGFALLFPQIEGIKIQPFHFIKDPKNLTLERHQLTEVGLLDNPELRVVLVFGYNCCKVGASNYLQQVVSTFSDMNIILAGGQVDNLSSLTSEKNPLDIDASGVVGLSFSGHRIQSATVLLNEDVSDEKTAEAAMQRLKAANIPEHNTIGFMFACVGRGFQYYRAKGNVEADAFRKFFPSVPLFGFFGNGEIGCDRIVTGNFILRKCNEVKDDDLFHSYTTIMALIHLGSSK
UniProt Q658Y4: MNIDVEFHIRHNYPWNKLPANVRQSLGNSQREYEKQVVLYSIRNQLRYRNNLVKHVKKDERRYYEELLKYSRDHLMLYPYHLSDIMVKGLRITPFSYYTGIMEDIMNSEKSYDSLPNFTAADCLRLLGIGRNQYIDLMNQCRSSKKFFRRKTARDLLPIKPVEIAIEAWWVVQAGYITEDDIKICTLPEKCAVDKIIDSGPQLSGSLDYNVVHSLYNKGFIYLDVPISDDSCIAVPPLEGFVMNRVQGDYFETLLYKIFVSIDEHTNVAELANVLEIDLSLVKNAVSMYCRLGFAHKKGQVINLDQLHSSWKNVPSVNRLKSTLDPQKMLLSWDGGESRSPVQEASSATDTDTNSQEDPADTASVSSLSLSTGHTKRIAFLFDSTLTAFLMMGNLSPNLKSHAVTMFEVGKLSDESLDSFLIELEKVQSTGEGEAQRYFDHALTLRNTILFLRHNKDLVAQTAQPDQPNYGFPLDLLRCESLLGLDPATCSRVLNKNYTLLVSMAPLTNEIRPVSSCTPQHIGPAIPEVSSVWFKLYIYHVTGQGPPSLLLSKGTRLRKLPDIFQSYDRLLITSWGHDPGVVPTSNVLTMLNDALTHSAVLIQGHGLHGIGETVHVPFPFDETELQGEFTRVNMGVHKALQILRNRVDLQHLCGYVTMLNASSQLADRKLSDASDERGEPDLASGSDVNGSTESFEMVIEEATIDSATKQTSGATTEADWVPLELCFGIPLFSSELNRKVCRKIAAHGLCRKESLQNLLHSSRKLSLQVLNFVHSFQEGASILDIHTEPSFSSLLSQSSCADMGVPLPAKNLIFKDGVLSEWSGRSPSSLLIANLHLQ
UniProt Q5T1M5: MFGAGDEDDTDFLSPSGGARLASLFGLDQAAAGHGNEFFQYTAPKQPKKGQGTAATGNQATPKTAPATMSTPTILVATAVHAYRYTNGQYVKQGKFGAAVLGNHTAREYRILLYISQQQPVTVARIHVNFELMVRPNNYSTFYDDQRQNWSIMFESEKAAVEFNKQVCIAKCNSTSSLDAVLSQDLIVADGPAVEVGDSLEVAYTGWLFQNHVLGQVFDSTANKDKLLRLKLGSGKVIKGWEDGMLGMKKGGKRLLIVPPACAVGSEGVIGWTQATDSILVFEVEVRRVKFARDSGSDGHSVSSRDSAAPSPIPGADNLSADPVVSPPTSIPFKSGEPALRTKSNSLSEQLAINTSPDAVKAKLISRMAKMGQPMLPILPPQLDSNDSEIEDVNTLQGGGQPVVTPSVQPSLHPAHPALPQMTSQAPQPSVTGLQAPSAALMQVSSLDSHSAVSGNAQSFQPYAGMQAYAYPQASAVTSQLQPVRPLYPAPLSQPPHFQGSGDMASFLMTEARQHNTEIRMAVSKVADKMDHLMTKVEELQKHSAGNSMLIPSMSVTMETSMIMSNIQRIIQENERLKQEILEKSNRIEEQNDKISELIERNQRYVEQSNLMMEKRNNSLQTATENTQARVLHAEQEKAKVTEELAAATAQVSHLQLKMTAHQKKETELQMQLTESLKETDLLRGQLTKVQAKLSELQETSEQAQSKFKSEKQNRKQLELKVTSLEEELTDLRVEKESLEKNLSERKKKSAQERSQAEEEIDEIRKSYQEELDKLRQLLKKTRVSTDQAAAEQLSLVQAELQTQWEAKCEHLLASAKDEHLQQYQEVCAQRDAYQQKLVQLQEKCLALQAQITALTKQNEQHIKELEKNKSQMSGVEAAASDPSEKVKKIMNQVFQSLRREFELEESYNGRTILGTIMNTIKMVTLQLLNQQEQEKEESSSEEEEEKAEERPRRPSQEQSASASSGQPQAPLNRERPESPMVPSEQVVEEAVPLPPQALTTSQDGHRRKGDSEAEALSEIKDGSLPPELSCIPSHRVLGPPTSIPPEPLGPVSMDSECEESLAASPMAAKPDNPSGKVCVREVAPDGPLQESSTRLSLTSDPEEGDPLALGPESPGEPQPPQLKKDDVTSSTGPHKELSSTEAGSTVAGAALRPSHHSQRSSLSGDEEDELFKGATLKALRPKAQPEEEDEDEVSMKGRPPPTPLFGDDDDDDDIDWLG
UniProt Q00688: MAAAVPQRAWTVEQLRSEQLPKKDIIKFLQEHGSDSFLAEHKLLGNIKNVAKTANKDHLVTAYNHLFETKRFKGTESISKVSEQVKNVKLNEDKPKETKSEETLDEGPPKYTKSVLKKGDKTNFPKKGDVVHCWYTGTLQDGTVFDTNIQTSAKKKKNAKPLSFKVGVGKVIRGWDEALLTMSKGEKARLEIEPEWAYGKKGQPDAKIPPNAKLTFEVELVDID
UniProt Q9Y3I1: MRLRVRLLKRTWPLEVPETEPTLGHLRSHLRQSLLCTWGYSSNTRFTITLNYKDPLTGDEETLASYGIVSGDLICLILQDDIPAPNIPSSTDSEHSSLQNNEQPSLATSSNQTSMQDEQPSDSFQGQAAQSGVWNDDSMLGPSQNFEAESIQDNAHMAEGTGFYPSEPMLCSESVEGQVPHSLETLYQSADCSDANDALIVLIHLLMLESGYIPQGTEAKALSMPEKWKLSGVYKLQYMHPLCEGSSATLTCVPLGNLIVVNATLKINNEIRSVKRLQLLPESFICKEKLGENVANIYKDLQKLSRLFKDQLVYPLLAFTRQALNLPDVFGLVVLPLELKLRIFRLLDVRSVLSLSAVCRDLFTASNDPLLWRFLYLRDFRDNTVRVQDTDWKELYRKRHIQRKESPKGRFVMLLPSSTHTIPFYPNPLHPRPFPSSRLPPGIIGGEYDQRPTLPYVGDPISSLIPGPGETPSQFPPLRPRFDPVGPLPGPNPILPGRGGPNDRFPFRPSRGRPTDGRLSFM
UniProt Q6P4F2: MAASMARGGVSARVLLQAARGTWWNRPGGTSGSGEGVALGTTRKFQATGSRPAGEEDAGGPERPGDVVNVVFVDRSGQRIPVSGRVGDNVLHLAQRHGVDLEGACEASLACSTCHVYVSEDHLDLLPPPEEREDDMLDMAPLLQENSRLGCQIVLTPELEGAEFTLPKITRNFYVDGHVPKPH
UniProt P37268: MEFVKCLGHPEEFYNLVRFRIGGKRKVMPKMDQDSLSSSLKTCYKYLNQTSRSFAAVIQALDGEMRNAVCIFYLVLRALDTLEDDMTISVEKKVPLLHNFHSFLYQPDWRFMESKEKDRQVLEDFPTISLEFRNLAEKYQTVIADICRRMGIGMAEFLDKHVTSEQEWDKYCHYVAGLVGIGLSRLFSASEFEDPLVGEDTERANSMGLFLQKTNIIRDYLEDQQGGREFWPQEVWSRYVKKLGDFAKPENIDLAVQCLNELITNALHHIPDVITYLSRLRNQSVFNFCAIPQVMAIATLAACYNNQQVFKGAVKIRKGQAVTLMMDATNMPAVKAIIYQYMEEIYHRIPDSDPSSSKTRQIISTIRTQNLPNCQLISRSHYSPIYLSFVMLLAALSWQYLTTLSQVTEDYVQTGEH
UniProt Q9UIM3: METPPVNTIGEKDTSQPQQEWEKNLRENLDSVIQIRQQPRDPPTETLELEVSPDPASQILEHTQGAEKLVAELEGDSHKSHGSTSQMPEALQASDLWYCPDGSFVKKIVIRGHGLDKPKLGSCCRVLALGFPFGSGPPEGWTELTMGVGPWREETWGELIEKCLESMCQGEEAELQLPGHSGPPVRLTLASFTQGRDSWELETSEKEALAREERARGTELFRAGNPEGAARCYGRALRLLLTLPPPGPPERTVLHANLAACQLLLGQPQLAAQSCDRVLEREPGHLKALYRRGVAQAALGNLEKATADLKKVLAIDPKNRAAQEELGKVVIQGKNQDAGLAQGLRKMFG
UniProt O95363: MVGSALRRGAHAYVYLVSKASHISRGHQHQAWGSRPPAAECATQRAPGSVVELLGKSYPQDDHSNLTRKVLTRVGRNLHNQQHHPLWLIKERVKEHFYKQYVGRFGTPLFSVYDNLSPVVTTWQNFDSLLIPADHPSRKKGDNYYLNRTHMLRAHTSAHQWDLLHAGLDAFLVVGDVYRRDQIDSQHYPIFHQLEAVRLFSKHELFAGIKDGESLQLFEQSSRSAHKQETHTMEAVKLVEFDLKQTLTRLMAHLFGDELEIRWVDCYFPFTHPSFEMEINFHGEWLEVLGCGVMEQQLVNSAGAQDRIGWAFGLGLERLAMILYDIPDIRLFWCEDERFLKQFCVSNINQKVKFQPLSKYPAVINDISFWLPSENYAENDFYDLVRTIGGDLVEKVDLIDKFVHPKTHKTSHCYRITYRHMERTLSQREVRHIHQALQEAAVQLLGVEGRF
UniProt Q8TB52: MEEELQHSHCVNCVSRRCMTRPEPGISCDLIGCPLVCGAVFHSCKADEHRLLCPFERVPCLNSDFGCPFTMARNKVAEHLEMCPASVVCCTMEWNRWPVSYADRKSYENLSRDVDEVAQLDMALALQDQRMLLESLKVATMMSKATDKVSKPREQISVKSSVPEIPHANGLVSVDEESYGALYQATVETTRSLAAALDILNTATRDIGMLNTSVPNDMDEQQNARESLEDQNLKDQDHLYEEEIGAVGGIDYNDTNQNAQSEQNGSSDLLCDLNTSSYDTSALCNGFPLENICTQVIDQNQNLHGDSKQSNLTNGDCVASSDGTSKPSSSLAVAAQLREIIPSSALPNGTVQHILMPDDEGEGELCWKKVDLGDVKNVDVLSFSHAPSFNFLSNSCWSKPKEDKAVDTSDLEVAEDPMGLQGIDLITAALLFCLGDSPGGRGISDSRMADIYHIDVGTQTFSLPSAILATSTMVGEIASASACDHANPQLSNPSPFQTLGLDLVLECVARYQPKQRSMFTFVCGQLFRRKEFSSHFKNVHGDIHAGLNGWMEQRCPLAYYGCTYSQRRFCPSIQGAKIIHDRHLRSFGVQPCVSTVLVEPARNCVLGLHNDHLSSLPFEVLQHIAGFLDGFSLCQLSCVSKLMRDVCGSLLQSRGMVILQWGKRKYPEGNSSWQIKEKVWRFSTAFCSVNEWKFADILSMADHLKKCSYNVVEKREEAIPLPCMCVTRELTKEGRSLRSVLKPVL

compound: Cc1cn(-c2cc(NC(=O)c3ccc(C)c(Nc4nccc(-c5cccnc5)n4)c3)cc(C(F)(F)F)c2)cn1 [nilotinib]; assay: log2 fold change, soluble protein after heating vs DMSO (PISA); higher = thermal stabilisation; K562 cells, 10 uM, 30 min; active = over 0.2 and 3.5 SD of the protein, either way, in both replicates (recomputed)
Outline: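 Soluble protein was quantified by TMTpro 16plex LC-MS/MS after channel sums were equalised. It was obtained as the supernatant after 21,000xg for 90 min from pooled aliquots of K562 cells (2×10^6 cells/mL, 10 μM compound, 30 min) heated for 3 min across 48°C-58°C and extracted in PBS with 0.5% NP-40 at 4°C. Thermal stability values are relative to control samples and come from duplicates. They are given as log2 fold changes.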

log2 fold change, inactive:
FBXO5 (UniProt Q9UKT4) 0.003
FEM1B (UniProt Q9UK73) -0.031
FKBP7 (UniProt Q9Y680) 0.055
FAM76B (UniProt Q5HYJ3) -0.069
FIP1L1 (UniProt Q6UN15) 0.102
FBXO22 (UniProt Q8NEZ5) -0.024
FAM91A1 (UniProt Q658Y4) -0.007
FKBP15 (UniProt Q5T1M5) -0.068
FKBP3 (UniProt Q00688) 0.028
FBXO7 (UniProt Q9Y3I1) 0.003
FDX2 (UniProt Q6P4F2) 0.005
FDFT1 (UniProt P37268) 0.12
FBXL20 (UniProt Q96IG2) -0.003
FKBPL (UniProt Q9UIM3) -0.016
FARS2 (UniProt O95363) -0.126
FBXO30 (UniProt Q8TB52) -0.049
FHL2 (UniProt Q14192) -0.018
FECH isoform 2 (UniProt P22830) 0.189
FAM50A (UniProt Q14320) -0.016
FBL (UniProt P22087) 0.094
FBLL1 (UniProt A6NHQ2) 0.061
FBXO3 (UniProt Q9UK99) -0.031
FN3KRP (UniProt Q9HA64) -0.004

Random excerpt: 2 entries already listed, in no set order.
log2 fold change, inactive:
FBXO7 (UniProt Q9Y3I1) 0.003
FKBP3 (UniProt Q00688) 0.028
